Measured values as given in PubChem BioAssay AID504834 (National Center for Advancing Translational Sciences (NCATS), 2011).
Hit rate of the full screen: of about 320,000 compounds, about 22,000 (6.9%) were called active. The shares of active, inactive and inconclusive entries below differ from those in the screen. Calls come from the whole dose curve; as a rule, active = well fitted inhibition curve with a large enough effect; inconclusive = small, poorly fitted or top-dose-only effect, or another doubt; inactive = no such curve, though single readings can be large or run the other way. Potencies beside an inconclusive call are fits to weak or partial responses and may not hold up.

Assay: Primary qHTS for delayed death inhibitors of the malarial parasite plastid, 96 hour incubation
Details: P. falciparum luciferase reporter growth; series mostly up to 28.7 µM
Summary of the method: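 Two-generation exposure (96 h) targets delayed-death phenotype. Reporter parasites carrying integrated firefly luciferase, in red cells at 2% hematocrit and 0.05% parasitemia final, kept at 37 C, 5% CO2; luminescence loss indicates inhibition.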
Potency is the fitted concentration of half-maximal effect.

Compound | Potency
CCCc1cc(C(=O)N2CCC(N3CCC(C(=O)NC(C)C)CC3)CC2)n(C)n1 | inconclusive: 5.22 µM [inhibitor, partial curve, poor fit]
CC(=O)N(C)c1ccc(NC(=S)NCC(C)C)cc1 | inactive
Cc1nnc(SCC(=O)NNC(=O)c2ccco2)n1-c1ccccc1 | inconclusive: 10.4 µM [inhibitor, single point]
COC(CNC(=O)c1cccc(-n2c(=S)[nH]c3cc(Cl)ccc3c2=O)c1)OC | inconclusive: 2.94 µM [inhibitor, full curve, poor fit]
COc1ccc(/C=C/C(=O)NCc2cn(C)nc2C)cc1COc1ccc(Br)cc1 | inconclusive: 1.31 µM [inhibitor, full curve, poor fit]
Cc1cc[n+](Cc2ccccc2)c(N)c1 | inactive
COc1ccc(CNC(=O)CCN2C(=S)NC(C)(C)CC2C)cc1 (stereo not given) | inactive
CCn1c(SCC(=O)Nc2ccc3c(c2)OCO3)nnc1-c1cnccn1 | inconclusive: 6.57 µM [inhibitor, partial curve, poor fit]
CCc1ccc2nc(N(CCCN(C)C)C(=O)c3ccc(S(=O)(=O)N(C)C4CCCCC4)cc3)sc2c1 | inconclusive: 4.65 µM [inhibitor, full curve, poor fit]
NC(CC(=O)O)C1CCCCC1 (stereo not given) | inconclusive: 0.37 µM [inhibitor, partial curve, poor fit]
CCOC(=O)NC(=S)Nc1ccc(OC)cc1 | inactive
Cc1ccc(S(=O)(=O)N2CCCC2C(=O)NCc2ccccc2Cl)cc1 (stereo not given) | inconclusive: 16.5 µM [inhibitor, partial curve, poor fit]
CC1CCN(CCC(=O)Nc2ccc3c(c2)OCCO3)CC1 | inactive
CCOC(=O)C1CCN(C(=O)CCCn2nc(C)c3c(C)n(-c4ccc(C)cc4)nc3c2=O)CC1 | inconclusive: 5.86 µM [inhibitor, partial curve]
Cc1cc(C)cc(NC(=O)Cn2cc3c(n2)CCCCC3)c1 | inconclusive: 18.5 µM [inhibitor, single point]
O=[N+]([O-])c1cc(C(F)(F)F)ccc1NCCCN1CCOCC1 | inconclusive: 9.28 µM [inhibitor, partial curve, poor fit]
CC/C(=N\O)c1c(O)c2c(n(-c3ccccc3)c1=O)CCCC2 | inactive
O=C(CN1C(=O)C2C3C=CC(C4CC34)C2C1=O)Oc1ccccc1 (stereo not given) | inactive
N#Cc1nc(-c2ccccc2F)oc1NCCN1CCOCC1 | active: 9.28 µM
Cc1nonc1C1CCCN1Cc1cn[nH]c1-c1ccc(-c2ccccc2)cc1 (stereo not given) | inconclusive: 18.5 µM [inhibitor, single point]
COc1cc(NC(=O)c2cccs2)c(OC)cc1NC(=O)CCC(=O)Nc1ccc2ncccc2c1 | inconclusive: 18.5 µM [inhibitor, partial curve, poor fit]
CCc1ccc(C2CC(c3ccccc3C)n3nc(N)nc3N2)cc1 (stereo not given) | active: 14.7 µM
C[C@H](NC(=O)c1ccccc1Cl)C(=O)NCc1cccs1 | inactive
CSCCC(NS(=O)(=O)c1ccc(C)cc1)C(=O)N1CCN(C(c2ccccc2)c2ccccc2)CC1 (stereo not given) | active: 6.57 µM

A second format for some results above:
COc1ccc(/C=C/C(=O)NCc2cn(C)nc2C)cc1COc1ccc(Br)cc1
  Potency: inconclusive: 1.31 µM [inhibitor, full curve, poor fit]
CCn1c(SCC(=O)Nc2ccc3c(c2)OCO3)nnc1-c1cnccn1
  Potency: inconclusive: 6.57 µM [inhibitor, partial curve, poor fit]
Cc1ccc(S(=O)(=O)N2CCCC2C(=O)NCc2ccccc2Cl)cc1 (stereo not given)
  Potency: inconclusive: 16.5 µM [inhibitor, partial curve, poor fit]

(cont.)

Compound | Potency
CC(/C=N/NC(=O)c1cc(-c2ccc3ccccc3c2)n[nH]1)=C\c1ccco1 | inactive
CCOc1ccc(CCNC(=O)CN2C(=O)COc3ccc(S(=O)(=O)N4CCOCC4)cc32)cc1 | inconclusive: 18.5 µM [inhibitor, single point]
CCOc1ccccc1C1CC(c2ccc(F)cc2)Nc2nc(N)nn21 (stereo not given) | inconclusive: 18.5 µM [inhibitor, partial curve, poor fit]
COc1cccc(C=NCCNC(=O)c2nonc2N)c1O | inconclusive: 13.1 µM [inhibitor, single point]
O=C1c2ccccc2C(=O)N1CCCc1cn(C[C@H]2CC[C@@H]([C@@H]3CC[C@H](Cn4cc(CCCN5C(=O)c6ccccc6C5=O)nn4)O3)O2)nn1 | inconclusive: 8.28 µM [inhibitor, partial curve, poor fit]
COC(CNC(=O)CN1CCN(Cc2ccccc2F)C1=O)OC | inconclusive: 18.5 µM [inhibitor, single point]
COc1ccc2c(c1)CCc1c(C(=O)N(C)c3ccccc3)noc1-2 | inconclusive: 18.5 µM [inhibitor, single point]
COC(=O)c1c(C)[nH]c(C(=O)COC(=O)Cc2ccc3c(c2)OCCO3)c1C | inconclusive: 2.08 µM [inhibitor, full curve]
O=C(N1CCC(n2nc(-c3ccccc3)oc2=O)CC1)C1(c2ccccc2)CC1 | inactive
COc1ccc(NC(=O)Cc2c(Sc3ccccc3)c3ccccc3n2C)cc1 | inconclusive: 2.62 µM [inhibitor, single point]
O=C(NCC(c1ccco1)N1CCc2ccccc2C1)c1ccc([N+](=O)[O-])cc1 (stereo not given) | inconclusive: 18.5 µM [inhibitor, partial curve, poor fit]
CCOc1ccccc1NC(=O)C1CCCN(c2c(CC)c(C)nc3ncnn23)C1 (stereo not given) | inactive
CC[C@H](C)Cc1cn([C@@H](CCCN=C(N)N)C(=O)NCCCCCCCCCCC(=O)N2CCNCC2)nn1 | inconclusive: 2.94 µM [inhibitor, partial curve, poor fit]
O=C(Nc1ccc2ccccc2c1)c1ccc(NS(=O)(=O)c2ccc(Br)s2)cc1 | inactive
Cc1ccc(Cl)cc1NC(=O)c1ccccc1OCC(=O)N1CCOCC1 | inconclusive: 0.147 µM [inhibitor, full curve]
c1ccc(Cc2noc(CN3CCC(CN4CCOCC4)CC3)n2)cc1 | inconclusive: 10.4 µM [inhibitor, single point]
CCCCN(Cc1ccco1)S(=O)(=O)c1csc(C(N)=O)c1 | active: 9.28 µM
O=C(NCCc1ccc(Cl)cc1)C1CCN(S(=O)(=O)c2cccs2)CC1 | inconclusive: 16.5 µM [inhibitor, partial curve, poor fit]
COc1cc(/C=N\n2nnnc2N)ccc1OCc1ccc(F)cc1 | inconclusive: 0.329 µM [inhibitor, partial curve, poor fit]
CCN(C(=O)COC(=O)/C=C/c1cnc2ccccc2n1)c1ccccc1 | inconclusive: 13.1 µM [inhibitor, partial curve, poor fit]
Cn1c(N)c(C(=O)CSc2nn(-c3ccc(F)cc3)c(=S)s2)c(=O)n(C)c1=O | inconclusive: 8.28 µM [inhibitor, single point]
COc1ccccc1OCc1nc(C#N)c(N2CCCC2)o1 | inactive
CC(=O)N1CCN(C(=O)c2cc(-c3ccc(C)o3)nc3ccccc23)CC1 | inactive
CCOc1ccc(Cc2nnc(SCC(=O)c3ccc(OC)cc3)o2)cc1 | active: 11.7 µM

Compound | Potency
CN(C(=O)COc1ccccc1)c1nc(-c2ccc(F)cc2)cs1 | inactive
COc1ccc(S(=O)(=O)N2CCOCC2)cc1NC(=O)CSc1ncnc2ccccc12 | inconclusive: 18.5 µM [inhibitor, single point]
COc1ccc(C(=O)C2CCCN(Cc3nc4ccccc4nc3C)C2)cc1OC (stereo not given) | inconclusive: 20.8 µM [inhibitor, single point]
CC(Sc1nc2ncc(Cl)cc2[nH]1)C(=O)c1c(N)n(C)c(=O)n(C)c1=O (stereo not given) | inconclusive: 8.28 µM [inhibitor, single point]
COc1cccc(C2C=C(c3ccc(OC)cc3OC)Nc3nnnn32)c1 (stereo not given) | inactive
O=C(CSc1nccc(=O)[nH]1)Nc1ccc(N2CCOCC2)cc1 | inconclusive: 8.28 µM [inhibitor, partial curve, poor fit]
COC(=O)CC1COc2ccccc2N1C(=O)c1ccc(C(C)(C)C)cc1 (stereo not given) | inconclusive: 13.1 µM [inhibitor, single point]
C=C(C)C(=O)Nc1ccc2c(c1)OCCOCCOCCO2 | inactive
O=C(O)C1CCCCN1S(=O)(=O)c1ccc(Cl)s1 (stereo not given) | active: 9.28 µM
O=C1/C(=C\c2ccc(Br)o2)SC(=Nc2ccccc2)N1c1ccccc1 | active: 9.28 µM
Cc1ccc2c(c1)C(=O)CC1(CCCC1)O2 | inactive
CC(C)C(NC(=O)c1ccccc1)C(=O)OCC(=O)N1CCCC1 (stereo not given) | inconclusive: 18.5 µM [inhibitor, single point]
O=C(c1cccs1)N(CC1CCCO1)c1nc(-c2ccccc2)cs1 (stereo not given) | inactive
Cc1cc(C)n(C(=O)c2ccc(Cl)c(F)c2F)n1 | active: 9.28 µM
O=C(NCc1ccccn1)c1cc2ccccn2n1 | inconclusive: 18.5 µM [inhibitor, single point]
O=C(N/N=C/c1ccc(Sc2ccccn2)o1)c1cccc([N+](=O)[O-])c1 | inconclusive: 11.7 µM [inhibitor, single point]
CCCC[C@H]1C(=O)N(c2ccccc2)N(c2ccc(O)cc2)C1=O | inconclusive: 1.14 µM [inhibitor, full curve, poor fit]
C/C(=N\Nc1ccc(C#N)cc1[N+](=O)[O-])c1ccc(C)o1 | inactive
Nc1ccc(-c2nc3c(ccc4ccccc43)[nH]2)cc1 | inactive
COc1ccc(C2C(C(C)=O)=C(O)C(=O)N2CCO)c(OC)c1 (stereo not given) | active: 11.7 µM
O=C(NCC1CCCO1)C1CCN(C2CCN(Cc3cccs3)CC2)CC1 (stereo not given) | inconclusive: 0.415 µM [inhibitor, full curve, poor fit]
CCCn1nc(NC(=O)c2cccs2)c2cc3cccc(C)c3nc21 | inconclusive: 0.0029 µM [inhibitor, full curve, poor fit]
